Laboratory results: PubChem BioAssay AID743458 (Peter MacCallum Cancer Centre, 2014)
This is an unselected part of about 1,800 reagents. 732 of them (41%) count as active. 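Calls are per siRNA reagent; a gene was deemed confirmed only if most of its four siRNAs scored.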 Reagents against one gene are numbered here.

- Purpose: 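Retest earlier hits with independent siRNAs per gene for restoring vorinostat sensitivity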 (follow-up of hits)
- System: human HCT116-VR colon cancer cells made resistant to vorinostat
- Reagents: single siRNA or pool against human genes, 25 nM per single siRNA
- Duration: about 72 h after transfection, including 24 h of drug
- Treatment: vorinostat, 2.5 µM final, for 24 h
- Detection: 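Cell viability by fluorescence and apoptosis by caspase 3/7 luminescence under vorinostat, background-corrected, averaged across two plate copies and given as fold change versus mock transfection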
- Reading the numbers: viability relative to mock: higher = more living cells than mock; caspase activity relative to mock: higher = more apoptosis than mock
- Hit rule: 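An siRNA counts as active if classed as reduced viability or as caspase activation, otherwise inactive; a hit class needed wells that remained healthy in the absence of drug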

gene	reagent no.	viability relative to mock	caspase activity relative to mock	viability hit class	caspase hit class	Call
POP1	1	0.86	1.22	no change	no change	inactive
POP1	2	0.55	2.54	reduced viability	no change	active
POP1	3	0.78	1.29	no change	no change	inactive
POP1	4	0.65	1.02	no change	no change	inactive
VMP1	1	0.57	5.88	no change	caspase activation	active
VMP1	2	0.29	3.68	reduced viability	caspase activation	active
VMP1	3	0.8	0.98	no change	no change	inactive
VMP1	4	0.69	0.8	no change	no change	inactive
P2RY12	1	1	1.32	no change	no change	inactive
P2RY12	2	0.4	3.78	reduced viability	caspase activation	active
P2RY12	3	0.81	1.23	no change	no change	inactive
P2RY12	4	0.89	0.97	no change	no change	inactive
VAX1	1	0.75	2.76	no change	caspase activation	active
VAX1	2	0.86	3.24	no change	caspase activation	active
VAX1	3	0.91	3.77	no change	caspase activation	active
VAX1	4	0.82	2.36	no change	no change	inactive
DBX1	1	0.56	2.88	reduced viability	caspase activation	active
DBX1	2	0.91	1.28	no change	no change	inactive
DBX1	3	0.2	2.52	no change	no change	inactive
DBX1	4	0.64	2.98	no change	caspase activation	active
NXPE1	1	0.87	1.2	no change	no change	inactive
NXPE1	2	0.68	1.23	no change	no change	inactive
NXPE1	3	0.56	2.85	reduced viability	caspase activation	active
NXPE1	4	0.73	1.29	no change	no change	inactive
USP45	1	0.34	3.04	reduced viability	caspase activation	active
USP45	2	0.9	1.84	no change	no change	inactive
USP45	3	1.02	1.82	no change	no change	inactive
USP45	4	1.04	1.26	no change	no change	inactive
INTS6L	1	0.68	3.54	no change	caspase activation	active
INTS6L	2	0.66	2.7	no change	caspase activation	active
INTS6L	3	1	1.19	no change	no change	inactive
INTS6L	4	0.86	2.24	no change	no change	inactive
DPPA5	1	0.67	2.98	no change	caspase activation	active
DPPA5	2	0.62	4.03	no change	caspase activation	active
DPPA5	3	0.86	2.61	no change	caspase activation	active
DPPA5	4	0.86	1.87	no change	no change	inactive
HSPA6	1	0.98	2.1	no change	no change	inactive
HSPA6	2	0.55	3.84	reduced viability	caspase activation	active
HSPA6	3	0.9	2.5	no change	no change	inactive
HSPA6	4	0.82	3.98	no change	caspase activation	active
C1orf210	1	0.37	5.34	reduced viability	caspase activation	active
C1orf210	2	0.72	2.78	no change	caspase activation	active
C1orf210	3	0.34	5.61	reduced viability	caspase activation	active
C1orf210	4	1.04	0.98	no change	no change	inactive
ZFAND5	1	0.94	1.19	no change	no change	inactive
ZFAND5	2	1.12	1.39	no change	no change	inactive
ZFAND5	3	0.97	1.19	no change	no change	inactive
ZFAND5	4	1.01	1.08	no change	no change	inactive
C2orf15	1	0.32	4.51	reduced viability	caspase activation	active
C2orf15	2	1	1.45	no change	no change	inactive
C2orf15	3	1.14	1.96	no change	no change	inactive
C2orf15	4	0.62	2	no change	no change	inactive
ANKRD13C-DT	1	0.78	4.31	no change	caspase activation	active
ANKRD13C-DT	2	0.86	1.17	no change	no change	inactive
ANKRD13C-DT	3	0.55	4.48	reduced viability	caspase activation	active
ANKRD13C-DT	4	0.58	3.57	no change	caspase activation	active
CFAP410	1	0.95	1.71	no change	no change	inactive
CFAP410	2	0.86	2.92	no change	caspase activation	active
CFAP410	3	0.94	1.25	no change	no change	inactive
CFAP410	4	1.03	2.15	no change	no change	inactive
APOL5	1	0.55	4.81	reduced viability	caspase activation	active
APOL5	2	0.77	3.35	no change	caspase activation	active
APOL5	3	0.86	1.48	no change	no change	inactive
APOL5	4	1.02	1.45	no change	no change	inactive
GABRB2	1	0.43	2.48	reduced viability	no change	active
GABRB2	2	0.79	1.14	no change	no change	inactive
GABRB2	3	0.58	1.38	no change	no change	inactive
GABRB2	4	0.62	1.57	no change	no change	inactive
EIF2B5	1	0.56	0.78	reduced viability	no change	active
EIF2B5	2	0.45	1.55	reduced viability	no change	active
EIF2B5	3	0.47	0.84	reduced viability	no change	active
EIF2B5	4	0.57	1.04	no change	no change	inactive
RPL7L1	1	0.73	2.17	no change	no change	inactive
RPL7L1	2	0.55	1.73	reduced viability	no change	active
RPL7L1	3	0.2	1.8	no change	no change	inactive
RPL7L1	4	0.25	2.01	no change	no change	inactive

Part of the list above, set out differently.
gene,reagent no.,viability relative to mock,caspase activity relative to mock,viability hit class,caspase hit class,Call
ANKRD13C-DT,4,0.58,3.57,no change,caspase activation,active
CFAP410,1,0.95,1.71,no change,no change,inactive
CFAP410,2,0.86,2.92,no change,caspase activation,active
CFAP410,3,0.94,1.25,no change,no change,inactive
CFAP410,4,1.03,2.15,no change,no change,inactive
APOL5,1,0.55,4.81,reduced viability,caspase activation,active
APOL5,2,0.77,3.35,no change,caspase activation,active
